Literature values, collected in patent US10662445B2, “Process for the production of bio-butanol by fermentation of glycosidic waste matter” (priority 2018, dated 2020).
Where two headings read alike, the source gives them in different places.

What was measured:
[1] = tested on: Mixed culture wastewater plant; settings: aqueous-organic 9:1, cited from earlier work
Pseudomonas mandelii = settings: 2-Undecanone, diethyl sebacate; 3:1; 4000-5000 mg/L; cited from earlier work
[2] = tested on: Pseudomonas putida ATCC 11172; settings: 2-undecanone; 2:1; 4000 mg/L (168 in the aqueous phase); cited from earlier work

In the case of `C=Cc1ccccc1` [Styrene], the Time to biodegrade ([1]; Silicone oil, 230 mg/L) is given as 5 h.
For `O=[N+]([O-])c1ccc(O)cc1` [4-nitrophenol], the Time to biodegrade ([1]; 2-undecanone, 350 mg/L) is given as 7 h.
In the case of `Oc1ccccc1` [Phenol], the Lag-phase (Pseudomonas mandelii) is listed as 24 h lag-phase,, the “Time to total consumption” value (Pseudomonas mandelii) is listed as “Total consumption in 75 h” and the Lag-phase [2] is listed as 12 h lag-phase;. The “Time to total consumption” value [2] was “Total consumption in 60 hours”.
